Measurements: patent US20200079848A1
No constants are given. Whether binding was seen depends on the method and setting. Some entries that bind do so weakly or less than the wild type.

Amino acid sequences for entries named in this document (tags omitted). A change or cut given only in a name is not applied to a line headed by its entry.
UniProt Q8N423: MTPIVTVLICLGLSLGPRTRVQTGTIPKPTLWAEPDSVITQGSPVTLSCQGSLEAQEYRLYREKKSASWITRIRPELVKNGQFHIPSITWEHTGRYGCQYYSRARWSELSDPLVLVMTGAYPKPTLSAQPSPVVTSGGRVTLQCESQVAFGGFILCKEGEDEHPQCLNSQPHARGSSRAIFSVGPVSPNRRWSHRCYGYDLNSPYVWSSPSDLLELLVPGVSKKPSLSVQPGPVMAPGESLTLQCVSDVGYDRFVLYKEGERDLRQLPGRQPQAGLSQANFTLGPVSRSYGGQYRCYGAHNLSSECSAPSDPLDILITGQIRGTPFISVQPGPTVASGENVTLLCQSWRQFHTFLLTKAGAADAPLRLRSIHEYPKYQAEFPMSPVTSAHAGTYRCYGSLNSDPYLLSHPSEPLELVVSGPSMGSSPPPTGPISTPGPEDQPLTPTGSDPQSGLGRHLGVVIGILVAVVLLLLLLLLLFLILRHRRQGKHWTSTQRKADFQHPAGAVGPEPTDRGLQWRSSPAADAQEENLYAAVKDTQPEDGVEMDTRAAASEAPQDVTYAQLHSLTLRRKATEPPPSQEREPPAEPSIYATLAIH

How the values were obtained:
[1] = molecular target: human ILT4 (hILT4) expressed on cells (human) (UniProt Q8N423); assay: flow cytometry on 293T transfectants, antibody at 20 ug/ml
[2] = molecular target: human ILT4 (hILT4) expressed on cells (human) (UniProt Q8N423); assay: flow cytometry, 293T transfectants, antibody 20 µg/ml; stacked histograms, x axis without numbers, control: parental cells
[3] = molecular target: human ILT4 (hILT4) expressed on cells (human) (UniProt Q8N423); assay: FACS or FMAT, hybridoma supernatant on hILT4-transfected cells against control CHO cells

Binder | binding [1] | binding [2] | binding [3]
10F10.IgG1.3 (antibody, V domains shown) VH: QVQLVESGGGVVQPGRSLRLSCAASGFTFSSYAMHWVRQAPGKGLEWVAIISYDEYNKYYADSVKGRFTISRDNSKNTLYLQMNSLRAEDTAVYYCAREWVGIRYWGQGTLVTVSS VL: AIQLTQSPSSLSASVGDRVTITCRASQGISSALAWFQQKPGKAPKLLIYDASSLESGVPSRFTGSGSGTDFTLTISSLQPEDFATYYCQQFNSYPITFGQGTRLEIKR | binds | binds | 
9C8.A6 (antibody, V domains shown) VH: QVQLVQSGAEVKKPGASVKVSCKASGYTFTSSDINWVRQATGQGLEWMGWMNPNSGHTGYAQKFQDRVTLTRDTSISTAYMELSSLRSEDSAVYYCARGGNSIDWGFSYYGLDVWGQGTTVTVSS VL: AIQLTQSPSSLSASVGDRVTITCRASQGISSALAWYQQKPGKAPKLLIYDASSLESGVPSRFSGSGSGTDFTLTISSLQPEDFATYYCQQFNSYPFTFGPGTKVDIK |  |  | binds
24E5.A7 (antibody, V domains shown) VH: EVQLLESGGGLVQPGGSLRLSCAASGFTFSSYVMSWVRQAPGKGLEWVSGISGSGGSTYYADSVKGRFTISRDNSKNTLYLQMNSLRAEDTAVYYCAKDQDIIAAYYFVYWGQGTLVTVSS VL: DIQMTQSPSSLSASVGDRVTITCRASQGISSWLAWYQQKPEKAPKSLIYAASSLQSGVPSRFSGSGSGTDFTLTISSLQPEDFATYYCQQYNSYPLTFGGGTKVEIK |  |  | binds
